Test results published in patent publication US20050009813A1 (priority 2001, published 2005).
“And” between values parts separate entries of the source, which are not always exact repeats. Equal entries are not always repeated. At least one structure is not confirmed: it was looked up by name or label, or the drawing left a doubt.

Tested on: behavioural despair (acquired immobility)
Test: Forced Swimming Test (Porsolt Swimming Test) on rats
Format: in vivo, rat (Sprague Dawley)
Settings: three administrations, rat, SD strain, 5 min test
Experimental: To verify whether this MAO-A-inhibitory action in vivo is relevant, deoxypeganine was tested in the “Forced Swimming Test” on rats (R. D. Porsolt et al., Nature 1977; 266(5604): 730-732). […] The time spent with attempts at escape until the animals fall into this psychomotorical inactivation (considered to be a surrogate for depression) is measured; prolonged activity corresponds to antidepressive action.
In the concrete case, […], about 6 weeks old (strain Sprague Dawley); acquired from Charles River UK Ltd.) were divided into 7 groups with 10 animals each. On the first day, after termination of the habituation phase, each animal was placed for 10 minutes in a cylindrical vessel filled about 15 cm high with 25°-warm water; this was followed, after one hour, 19 hours, and 23 hours, by three oral administrations of (depending on the group) either negative control (water), 15 mg/kg positive control (imipramine.HCl), or deoxypeganine.HCl in dosages of 1.0, 2.5, 7.5, 15.0 or 22.5 mg/kg of bodyweight. The volume, administered with the aid of a gastric tube, was in each case 5 ml/kg of bodyweight. One hour after the third of these treatments, each animal was again placed in the vessel for exactly 5 minutes and the time spent in minimal mobility was measured.

## Cl.c1ccc2c(c1)CN1CCCC1=N2 [deoxypeganine hydrochloride]
7.5 mg/kg p.o., hydrochloride
  Acquired Immobility (group mean value in minutes ± standard dev.): 1.82 ± 0.96 min and 1.98 ± 0.83 min
15 mg/kg p.o.
  Acquired Immobility (group mean value in minutes ± standard dev.): 1.90 ± 0.59 min
22.5 mg/kg p.o.
  Acquired Immobility (group mean value in minutes ± standard dev.): 1.90 ± 0.54 min
